# The list shows a part of the results.
# Protein sequences, listed by entry. Tags and fused reporters are not part of them. Lines headed by an entry give the natural chain unless they say otherwise; changes in a name come on top.
# UniProt P51149, whole entry, looked up: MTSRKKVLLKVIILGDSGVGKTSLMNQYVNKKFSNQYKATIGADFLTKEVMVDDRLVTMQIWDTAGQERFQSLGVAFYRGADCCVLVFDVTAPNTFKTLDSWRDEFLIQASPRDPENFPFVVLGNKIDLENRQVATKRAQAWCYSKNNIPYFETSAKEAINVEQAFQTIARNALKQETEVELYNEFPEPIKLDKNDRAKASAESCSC
# UniProt Q15042: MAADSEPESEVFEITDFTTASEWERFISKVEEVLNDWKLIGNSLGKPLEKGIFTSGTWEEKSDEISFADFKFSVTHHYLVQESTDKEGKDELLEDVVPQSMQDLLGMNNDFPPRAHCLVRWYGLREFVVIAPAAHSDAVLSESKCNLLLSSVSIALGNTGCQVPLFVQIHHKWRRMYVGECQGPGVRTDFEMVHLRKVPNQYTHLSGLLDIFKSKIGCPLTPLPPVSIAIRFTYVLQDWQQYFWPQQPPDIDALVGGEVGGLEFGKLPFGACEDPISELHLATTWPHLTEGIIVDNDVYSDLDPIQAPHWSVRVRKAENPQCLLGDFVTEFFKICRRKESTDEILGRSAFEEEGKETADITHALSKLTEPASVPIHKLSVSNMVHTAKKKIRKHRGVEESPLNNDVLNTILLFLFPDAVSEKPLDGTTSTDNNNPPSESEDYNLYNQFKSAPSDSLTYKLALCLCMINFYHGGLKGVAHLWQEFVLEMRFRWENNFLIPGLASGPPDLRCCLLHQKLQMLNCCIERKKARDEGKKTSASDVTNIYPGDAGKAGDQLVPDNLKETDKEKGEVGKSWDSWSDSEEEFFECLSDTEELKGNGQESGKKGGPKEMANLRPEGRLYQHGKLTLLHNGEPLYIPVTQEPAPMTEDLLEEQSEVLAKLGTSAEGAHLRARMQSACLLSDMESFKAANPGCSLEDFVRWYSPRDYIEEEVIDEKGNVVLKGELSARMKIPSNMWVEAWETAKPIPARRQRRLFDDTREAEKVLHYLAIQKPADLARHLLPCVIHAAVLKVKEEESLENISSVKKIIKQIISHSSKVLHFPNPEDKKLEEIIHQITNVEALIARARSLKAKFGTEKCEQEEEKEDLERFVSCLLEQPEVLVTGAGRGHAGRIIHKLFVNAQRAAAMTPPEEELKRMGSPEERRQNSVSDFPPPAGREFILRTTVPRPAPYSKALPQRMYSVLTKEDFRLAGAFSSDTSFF
# UniProt Q7Z7A4: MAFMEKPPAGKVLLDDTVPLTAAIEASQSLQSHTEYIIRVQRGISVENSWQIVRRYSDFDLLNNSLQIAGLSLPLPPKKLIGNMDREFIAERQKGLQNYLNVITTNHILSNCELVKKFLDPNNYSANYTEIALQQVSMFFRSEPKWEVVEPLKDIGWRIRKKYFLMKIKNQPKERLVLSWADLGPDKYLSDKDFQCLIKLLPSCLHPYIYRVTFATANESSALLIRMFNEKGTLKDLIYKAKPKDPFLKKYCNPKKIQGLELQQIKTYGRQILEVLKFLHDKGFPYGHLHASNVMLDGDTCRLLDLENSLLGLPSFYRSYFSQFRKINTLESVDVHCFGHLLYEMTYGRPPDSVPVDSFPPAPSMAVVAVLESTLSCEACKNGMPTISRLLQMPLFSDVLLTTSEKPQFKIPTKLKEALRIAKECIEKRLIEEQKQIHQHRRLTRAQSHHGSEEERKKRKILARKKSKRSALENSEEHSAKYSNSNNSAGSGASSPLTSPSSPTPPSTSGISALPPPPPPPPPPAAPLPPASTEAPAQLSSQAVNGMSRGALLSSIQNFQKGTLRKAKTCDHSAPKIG
# UniProt Q6IQ22: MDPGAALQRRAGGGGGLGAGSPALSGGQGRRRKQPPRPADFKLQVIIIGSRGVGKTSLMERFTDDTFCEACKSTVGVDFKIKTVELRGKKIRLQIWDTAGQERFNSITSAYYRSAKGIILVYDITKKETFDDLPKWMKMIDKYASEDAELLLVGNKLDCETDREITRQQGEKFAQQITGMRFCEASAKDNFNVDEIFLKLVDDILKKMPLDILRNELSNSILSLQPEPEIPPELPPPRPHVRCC
# UniProt P51148: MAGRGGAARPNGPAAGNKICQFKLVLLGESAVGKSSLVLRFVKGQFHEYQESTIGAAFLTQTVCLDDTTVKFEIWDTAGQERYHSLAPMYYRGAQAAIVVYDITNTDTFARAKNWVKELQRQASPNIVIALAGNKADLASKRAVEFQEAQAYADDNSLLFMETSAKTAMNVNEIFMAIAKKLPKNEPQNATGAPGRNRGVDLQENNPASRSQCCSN
# UniProt Q86X10: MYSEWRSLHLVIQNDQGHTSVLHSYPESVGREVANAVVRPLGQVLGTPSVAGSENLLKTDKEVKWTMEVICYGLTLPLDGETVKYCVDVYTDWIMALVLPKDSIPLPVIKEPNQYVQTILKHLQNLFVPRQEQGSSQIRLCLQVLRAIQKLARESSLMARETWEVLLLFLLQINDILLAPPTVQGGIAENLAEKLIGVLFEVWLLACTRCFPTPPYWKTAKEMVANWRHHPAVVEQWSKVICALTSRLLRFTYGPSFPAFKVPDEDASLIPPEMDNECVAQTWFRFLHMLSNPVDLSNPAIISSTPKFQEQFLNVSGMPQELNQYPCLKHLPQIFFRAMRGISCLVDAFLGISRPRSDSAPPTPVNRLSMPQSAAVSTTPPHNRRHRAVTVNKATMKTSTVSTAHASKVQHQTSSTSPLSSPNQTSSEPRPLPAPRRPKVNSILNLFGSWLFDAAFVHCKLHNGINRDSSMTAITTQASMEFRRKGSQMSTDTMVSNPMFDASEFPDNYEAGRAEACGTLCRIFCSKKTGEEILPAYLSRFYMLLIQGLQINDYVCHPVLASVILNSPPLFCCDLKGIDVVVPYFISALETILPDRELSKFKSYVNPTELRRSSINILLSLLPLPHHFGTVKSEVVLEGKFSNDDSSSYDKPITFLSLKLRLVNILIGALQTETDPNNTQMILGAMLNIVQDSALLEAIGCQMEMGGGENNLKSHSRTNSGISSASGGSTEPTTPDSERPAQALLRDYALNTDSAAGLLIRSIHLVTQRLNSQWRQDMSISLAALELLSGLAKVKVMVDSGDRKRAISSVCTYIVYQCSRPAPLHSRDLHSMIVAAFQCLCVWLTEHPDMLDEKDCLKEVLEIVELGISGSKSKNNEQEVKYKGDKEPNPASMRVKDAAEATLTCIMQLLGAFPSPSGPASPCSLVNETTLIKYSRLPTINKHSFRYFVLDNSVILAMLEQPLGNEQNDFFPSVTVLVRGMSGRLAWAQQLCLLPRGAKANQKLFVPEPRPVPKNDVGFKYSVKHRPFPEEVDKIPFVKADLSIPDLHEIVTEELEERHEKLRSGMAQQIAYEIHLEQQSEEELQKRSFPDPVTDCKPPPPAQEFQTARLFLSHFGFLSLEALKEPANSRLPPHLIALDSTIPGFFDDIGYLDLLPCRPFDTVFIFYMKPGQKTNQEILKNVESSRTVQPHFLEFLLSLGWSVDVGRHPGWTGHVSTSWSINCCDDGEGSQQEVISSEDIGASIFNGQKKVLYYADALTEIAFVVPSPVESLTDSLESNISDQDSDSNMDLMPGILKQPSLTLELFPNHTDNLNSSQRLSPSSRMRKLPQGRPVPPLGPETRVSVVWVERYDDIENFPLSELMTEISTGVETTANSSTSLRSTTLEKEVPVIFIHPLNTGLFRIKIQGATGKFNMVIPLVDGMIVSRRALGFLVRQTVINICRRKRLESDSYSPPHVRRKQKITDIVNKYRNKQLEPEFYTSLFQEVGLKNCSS
# UniProt Q9ULZ3, whole entry, looked up: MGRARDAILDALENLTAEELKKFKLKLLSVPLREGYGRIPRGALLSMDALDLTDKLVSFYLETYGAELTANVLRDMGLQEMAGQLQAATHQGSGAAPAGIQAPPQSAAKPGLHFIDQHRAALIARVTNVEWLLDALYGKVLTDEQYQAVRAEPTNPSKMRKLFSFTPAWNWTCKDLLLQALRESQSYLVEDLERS
# UniProt P32322: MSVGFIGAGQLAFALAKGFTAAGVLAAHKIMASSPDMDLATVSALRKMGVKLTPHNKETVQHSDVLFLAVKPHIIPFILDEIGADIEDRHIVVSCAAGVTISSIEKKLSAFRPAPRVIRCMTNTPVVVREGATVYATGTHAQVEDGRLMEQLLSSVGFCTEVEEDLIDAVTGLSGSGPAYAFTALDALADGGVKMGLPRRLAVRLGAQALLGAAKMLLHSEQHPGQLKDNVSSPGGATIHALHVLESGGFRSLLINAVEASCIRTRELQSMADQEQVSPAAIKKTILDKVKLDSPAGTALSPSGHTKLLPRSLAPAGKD
# UniProt Q96B01: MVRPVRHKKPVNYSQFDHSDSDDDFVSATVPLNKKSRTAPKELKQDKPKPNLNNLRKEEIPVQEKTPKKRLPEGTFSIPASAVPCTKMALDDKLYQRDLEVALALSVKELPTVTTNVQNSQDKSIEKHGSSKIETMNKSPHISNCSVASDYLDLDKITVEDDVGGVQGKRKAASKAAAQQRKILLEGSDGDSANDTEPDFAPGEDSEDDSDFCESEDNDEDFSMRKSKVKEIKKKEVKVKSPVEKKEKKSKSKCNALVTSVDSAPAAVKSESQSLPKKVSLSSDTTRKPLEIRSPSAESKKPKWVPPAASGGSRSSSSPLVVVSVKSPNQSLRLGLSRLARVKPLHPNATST
# UniProt Q9BUV8: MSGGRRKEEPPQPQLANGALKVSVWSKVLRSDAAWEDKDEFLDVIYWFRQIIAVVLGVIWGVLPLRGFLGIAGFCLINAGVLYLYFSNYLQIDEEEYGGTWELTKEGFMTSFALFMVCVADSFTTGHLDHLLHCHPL
# UniProt Q92698: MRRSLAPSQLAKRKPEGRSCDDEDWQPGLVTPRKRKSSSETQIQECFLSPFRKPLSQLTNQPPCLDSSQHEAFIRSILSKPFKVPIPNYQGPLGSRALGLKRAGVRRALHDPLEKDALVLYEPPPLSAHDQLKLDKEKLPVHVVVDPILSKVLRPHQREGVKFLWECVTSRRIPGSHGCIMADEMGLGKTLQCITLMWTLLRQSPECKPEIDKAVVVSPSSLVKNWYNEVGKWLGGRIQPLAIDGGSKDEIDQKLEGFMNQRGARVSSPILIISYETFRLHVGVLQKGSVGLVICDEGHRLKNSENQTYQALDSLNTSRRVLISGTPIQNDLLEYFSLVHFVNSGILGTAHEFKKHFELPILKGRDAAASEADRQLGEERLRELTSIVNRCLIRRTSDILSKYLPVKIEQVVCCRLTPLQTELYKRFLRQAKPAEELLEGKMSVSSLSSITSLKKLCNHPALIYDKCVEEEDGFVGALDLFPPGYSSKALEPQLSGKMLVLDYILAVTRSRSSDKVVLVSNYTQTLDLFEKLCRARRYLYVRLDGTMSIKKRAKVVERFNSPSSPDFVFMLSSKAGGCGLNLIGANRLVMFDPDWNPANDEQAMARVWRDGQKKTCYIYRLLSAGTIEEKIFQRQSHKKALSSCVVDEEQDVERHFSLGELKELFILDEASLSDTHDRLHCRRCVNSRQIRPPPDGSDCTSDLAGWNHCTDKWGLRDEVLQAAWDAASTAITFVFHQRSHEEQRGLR
# UniProt Q9Y620: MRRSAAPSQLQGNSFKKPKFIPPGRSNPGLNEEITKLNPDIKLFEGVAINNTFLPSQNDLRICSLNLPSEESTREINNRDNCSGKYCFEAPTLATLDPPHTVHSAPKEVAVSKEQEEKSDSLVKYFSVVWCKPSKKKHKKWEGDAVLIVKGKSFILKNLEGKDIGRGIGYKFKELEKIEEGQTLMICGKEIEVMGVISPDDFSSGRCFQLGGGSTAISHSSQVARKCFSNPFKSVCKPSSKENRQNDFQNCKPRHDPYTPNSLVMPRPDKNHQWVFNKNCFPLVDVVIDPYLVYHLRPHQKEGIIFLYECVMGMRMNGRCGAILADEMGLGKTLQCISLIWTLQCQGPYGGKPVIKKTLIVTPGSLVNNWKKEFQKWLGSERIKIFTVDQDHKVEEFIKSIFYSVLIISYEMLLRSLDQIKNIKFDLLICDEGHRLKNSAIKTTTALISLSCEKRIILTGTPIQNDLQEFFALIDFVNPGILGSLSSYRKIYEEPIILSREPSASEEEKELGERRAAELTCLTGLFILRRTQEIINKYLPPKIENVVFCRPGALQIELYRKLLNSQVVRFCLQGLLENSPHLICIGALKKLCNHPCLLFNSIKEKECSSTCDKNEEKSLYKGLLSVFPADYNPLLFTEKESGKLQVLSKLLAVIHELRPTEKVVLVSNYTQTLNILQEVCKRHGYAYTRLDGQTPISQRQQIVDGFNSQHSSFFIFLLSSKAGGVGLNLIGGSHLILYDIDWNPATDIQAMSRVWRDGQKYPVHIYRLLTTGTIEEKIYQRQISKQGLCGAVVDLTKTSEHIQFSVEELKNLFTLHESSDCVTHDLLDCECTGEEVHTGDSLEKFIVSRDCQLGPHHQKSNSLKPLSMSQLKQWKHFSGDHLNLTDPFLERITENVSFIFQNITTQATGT
# UniProt Q86YS6: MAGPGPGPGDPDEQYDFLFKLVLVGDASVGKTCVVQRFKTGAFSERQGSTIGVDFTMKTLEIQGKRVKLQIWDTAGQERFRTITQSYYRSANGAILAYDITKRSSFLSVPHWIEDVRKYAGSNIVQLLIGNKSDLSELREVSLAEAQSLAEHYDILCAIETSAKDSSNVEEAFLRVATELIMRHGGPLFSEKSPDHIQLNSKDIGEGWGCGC
# Experiments:
# Test in all cases: log2 fold change, soluble protein after heating vs DMSO (PISA); higher = thermal stabilisation; K562 lysate, 10 uM; active = over 0.2 and 3.5 SD of the protein, either way, in both replicates (recomputed)
# erlotinib = compound: C#Cc1cccc(Nc2ncnc3cc(OCCOC)c(OCCOC)cc23)c1 [erlotinib]
# Procedure, shortened: (§1)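 Log-two fold change in thermal stability relative to solvent controls is reported from duplicates. For each sample, crude K562 extract from dounce-homogenised pellets in PBS pH 7.4 with 1 mM MgCl2, at 1 mg/mL protein, was treated with 10 μM compound for 30 min. Aliquots heated for 3 min across 48°C-58°C were pooled, brought to 0.5% NP-40 at 4°C and cleared at 21,000xg for 90 min. The supernatant was quantified by TMTpro 16plex LC-MS/MS with channel sums equalised.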
# [1] = compound: C/C(=N\NC(=O)C1=CC(=CC=C1)S(=O)(=O)N2CCOCC2)/C3=C(C=CC(=C3)Cl)O
# Procedure, shortened: as §1
# [2] = compound: C1=CC(=CC=C1C2=NC3=C(N2)C=C(C=C3)C(=O)N)OC4=CC=C(C=C4)Cl
# Procedure, shortened: as §1
# [3] = compound: C1=CC2=C(C=CC(=C2)/C=C\3/C(=O)NC(=NCC4=CC=CS4)S3)N=C1
# Procedure, shortened: as §1
# [4] = compound: C1=CC2=NC=CN=C2C=C1/C=C/3\C(=O)NC(=O)S3
# Procedure, shortened: as §1
# [5] = compound: C1=CC=C(C=C1)C2=NC(=C(N2)C3=CC=NC=C3)C4=CC(=C(C=C4)Cl)O
# Procedure, shortened: as §1
# [6] = compound: C1=CC=C2C(=C1)C3=NNC4=CC=CC(=C43)C2=O
# Procedure, shortened: as §1
# [7] = compound: C1CCN(C1)C(=O)NC2=CC=CC(=C2)NC3=NC=C(C(=N3)NCCC4=CN=CN4)Br
# Procedure, shortened: as §1
# [8] = compound: C1CN(CCC1(CC2=CC=C(C=C2)Cl)N)C3=NC=NC4=C3C=CN4
# Procedure, shortened: as §1
# IRAK-1-4 Inhibitor I = compound: C1COCCN1CCN2C3=CC=CC=C3N=C2NC(=O)C4=CC(=CC=C4)[N+](=O)[O-] [IRAK-1-4 Inhibitor I]
# Procedure, shortened: as §1
Target,log2 fold change (erlotinib),log2 fold change [1],log2 fold change [2],log2 fold change [3],log2 fold change [4],log2 fold change [5],log2 fold change [6],log2 fold change [7],log2 fold change [8],log2 fold change (IRAK-1-4 Inhibitor I)
RAB7A (UniProt P51149),inactive: 0,inactive: -0.029,inactive: 0.032,inactive: -0.014,inactive: -0.009,inactive: -0.006,inactive: 0.006,inactive: 0.033,inactive: 0.027,inactive: 0.025
RAD54L2 (UniProt Q9Y4B4),inactive: 0.186,inactive: -0.176,inactive: -0.103,inactive: -0.035,inactive: -0.135,–,inactive: 0.002,inactive: -0.046,inactive: 0.055,–
RAB3GAP1 (UniProt Q15042),inactive: 0.013,inactive: -0.049,inactive: -0.007,inactive: 0.016,inactive: 0.005,inactive: 0.011,inactive: -0.034,inactive: -0.006,inactive: -0.016,inactive: -0.006
PXK (UniProt Q7Z7A4),inactive: 0.044,inactive: 0.042,inactive: 0.023,inactive: 0.04,inactive: 0.005,inactive: 0.022,inactive: -0.05,inactive: -0.008,inactive: 0.006,inactive: -0.018
RABGAP1L isoform 3 (UniProt Q5R372),inactive: -0.022,inactive: 0.018,inactive: 0.026,inactive: -0.006,inactive: 0.022,inactive: 0.02,inactive: 0.011,inactive: 0.006,inactive: -0.008,inactive: 0.021
RAB12 (UniProt Q6IQ22),inactive: -0.04,inactive: 0.253,inactive: -0.026,inactive: -0.007,inactive: 0.001,inactive: -0.024,inactive: -0.041,inactive: -0.019,inactive: 0.024,inactive: -0.026
RAB5C isoform 2 (UniProt P51148),inactive: -0.023,inactive: -0.022,inactive: 0.031,inactive: 0,inactive: -0.006,inactive: 0.005,inactive: -0.026,inactive: 0.02,inactive: 0.01,inactive: 0.021
RAC1 isoform 2 (UniProt P63000),inactive: -0.029,inactive: -0.054,inactive: 0.025,inactive: 0.003,inactive: 0.023,inactive: 0.059,inactive: 0.013,inactive: 0.011,inactive: 0.001,inactive: -0.028
RALGAPB (UniProt Q86X10),inactive: 0.024,inactive: -0.047,inactive: 0.051,inactive: 0.018,inactive: 0,inactive: -0.038,inactive: -0.074,inactive: -0.008,inactive: 0.049,inactive: 0.033
"RAB11FIP5, A0A1B0GTL5",inactive: 0.09,–,inactive: -0.084,–,–,–,–,–,–,–
RANGRF (UniProt Q9HD47),inactive: -0.182,–,inactive: 0.116,–,–,inactive: -0.115,–,–,–,inactive: 0.056
RACK1 (UniProt D6RF23),–,inactive: -0.063,–,inactive: 0,inactive: -0.039,–,inactive: -0.126,inactive: 0,inactive: -0.099,–
"QSER1, A0A3B3IRW6",inactive: -0.056,inactive: 0.025,inactive: 0.054,inactive: -0.057,–,inactive: -0.006,inactive: 0.059,inactive: 0.002,inactive: -0.046,inactive: -0.014
RAB29 (UniProt O14966),inactive: -0.086,–,inactive: 0.051,–,–,inactive: 0.043,–,–,–,inactive: 0.11
PYCARD isoform 2 (UniProt Q9ULZ3),inactive: -0.15,–,inactive: -0.098,–,inactive: 0.089,inactive: 0.14,–,–,–,inactive: -0.001
RACK1 (UniProt D6RHH4),–,inactive: -0.196,–,inactive: 0,inactive: -0.174,–,inactive: 0.087,–,–,–
PYCR1 isoform 3 (UniProt P32322),inactive: -0.008,inactive: 0.04,–,inactive: -0.022,–,inactive: -0.01,inactive: -0.004,–,inactive: -0.007,inactive: 0.014
PYHIN1 (UniProt Q6K0P9),–,–,–,–,–,inactive: 0.084,–,–,–,inactive: -0.137
RAB3D (UniProt O95716),inactive: -0.007,inactive: -0.04,inactive: -0.076,inactive: -0.123,–,inactive: -0.085,inactive: -0.067,inactive: -0.207,inactive: 0.192,inactive: -0.025
RAD17 (UniProt O75943),–,inactive: 0.005,–,inactive: -0.1,inactive: 0.014,inactive: -0.047,active: -0.458,inactive: 0.031,inactive: 0.019,inactive: 0.021
RAD51AP1 (UniProt Q96B01),inactive: 0.006,–,inactive: -0.025,–,inactive: -0.051,inactive: 0.041,–,inactive: -0.023,inactive: 0.11,inactive: -0.039

Target,log2 fold change (erlotinib),log2 fold change [1],log2 fold change [2],log2 fold change [3],log2 fold change [4],log2 fold change [5],log2 fold change [6],log2 fold change [7],log2 fold change [8],log2 fold change (IRAK-1-4 Inhibitor I)
RAP1B (UniProt F5GZG1),inactive: -0.028,inactive: 0.332,inactive: 0.101,inactive: -0.048,inactive: -0.206,–,inactive: -0.08,inactive: -0.081,inactive: 0.04,–
RALGAPB isoform 3 (UniProt Q86X10),–,–,–,–,inactive: -0.146,–,–,inactive: -0.119,inactive: 0,–
RANBP3 isoform 2 (UniProt Q9H6Z4),–,inactive: -0.103,–,inactive: -0.148,inactive: -0.017,inactive: -0.044,inactive: -0.058,inactive: 0.012,inactive: -0.076,inactive: 0.023
PYGO2 (UniProt Q9BRQ0),inactive: -0.047,–,inactive: 0.045,–,inactive: -0.039,inactive: 0.115,–,inactive: 0.012,inactive: 0.049,inactive: 0.051
NA (UniProt Q4G0T1),inactive: -0.178,–,active: 0.348,–,–,inactive: 0.017,–,–,–,inactive: 0.002
R3HDM4 (UniProt Q96D70),inactive: 0.059,inactive: 0.034,inactive: -0.025,inactive: 0.248,–,inactive: 0.023,inactive: -0.073,inactive: 0.056,inactive: 0.164,inactive: -0.014
RAB39B (UniProt Q96DA2),–,–,–,–,inactive: -0.027,–,–,–,–,–
QSOX1 (UniProt O00391),inactive: -0.05,–,inactive: 0.002,–,–,–,–,inactive: -0.02,inactive: -0.053,–
RAB11FIP3 isoform 3 (UniProt O75154),inactive: 0.002,–,inactive: -0.045,–,–,inactive: 0.036,–,inactive: -0.038,inactive: -0.088,inactive: -0.102
RAB11FIP4 isoform 2 (UniProt Q86YS3),–,–,–,–,–,inactive: 0.147,–,–,–,inactive: 0.113
RAB5IF isoform 5 (UniProt Q9BUV8),inactive: 0.193,inactive: 0.021,inactive: 0.082,inactive: 0.001,inactive: -0.052,–,inactive: -0.036,inactive: -0.065,inactive: 0.034,–
RAD54L (UniProt Q92698),inactive: -0.026,–,inactive: -0.005,–,inactive: -0.072,inactive: -0.071,–,–,–,inactive: 0.02
RAB27B (UniProt O00194),inactive: 0.016,inactive: 0.19,inactive: -0.032,inactive: -0.195,–,–,inactive: -0.101,inactive: -0.149,inactive: 0.09,–
RAP1GDS1 isoform 4 (UniProt P52306),–,–,–,–,inactive: 0.063,–,–,–,–,–
RAD54B (UniProt Q9Y620),–,inactive: -0.269,–,inactive: -0.039,–,inactive: -0.059,inactive: 0.025,inactive: 0.09,inactive: 0.037,inactive: 0.029
RAD23A isoform 3 (UniProt P54725),inactive: 0.085,–,inactive: 0.158,–,–,inactive: -0.352,–,–,–,inactive: 0.042
RAI1 (UniProt Q7Z5J4),–,–,–,–,–,–,–,inactive: -0.159,inactive: 0.088,–
R3HDM2 (UniProt B5MCU0),inactive: -0.013,–,inactive: -0.065,–,–,inactive: 0.112,–,inactive: -0.014,inactive: 0.159,inactive: 0.068
RAB18 (UniProt Q9NP72),inactive: -0.116,inactive: 0.002,inactive: -0.083,inactive: -0.005,inactive: 0.059,–,inactive: -0.009,inactive: -0.004,inactive: -0.071,–
RAB43 (UniProt Q86YS6),inactive: 0.088,–,inactive: 0.043,–,inactive: -0.065,inactive: -0.032,–,inactive: 0.009,inactive: -0.029,inactive: -0.062
RAC3 (UniProt P60763),inactive: -0.031,inactive: 0.135,inactive: 0.054,inactive: -0.023,–,–,inactive: 0.048,inactive: 0.082,inactive: 0,–

# Single records, from the list above. Order of values: log2 fold change (erlotinib) | log2 fold change [1] | log2 fold change [2] | log2 fold change [3] | log2 fold change [4] | log2 fold change [5] | log2 fold change [6] | log2 fold change [7] | log2 fold change [8] | log2 fold change (IRAK-1-4 Inhibitor I)
# RAB18 (UniProt Q9NP72) is listed as inactive: -0.116 | inactive: 0.002 | inactive: -0.083 | inactive: -0.005 | inactive: 0.059 | – | inactive: -0.009 | inactive: -0.004 | inactive: -0.071 | –
# RALGAPB isoform 3 (UniProt Q86X10) is listed as – | – | – | – | inactive: -0.146 | – | – | inactive: -0.119 | inactive: 0 | –

# Source: the supplement of paper PMC10849652
